Consider 33 molecules from patent US20150252079A1 (Affibody, published 2015).

The chains behind the UniProt entries cited, without tags or fusion partners. Where a name states a change or a piece, a line headed by the entry shows the natural chain unless it says otherwise. Residues count along the entry.
UniProt P21860, 20-643 limits assumed: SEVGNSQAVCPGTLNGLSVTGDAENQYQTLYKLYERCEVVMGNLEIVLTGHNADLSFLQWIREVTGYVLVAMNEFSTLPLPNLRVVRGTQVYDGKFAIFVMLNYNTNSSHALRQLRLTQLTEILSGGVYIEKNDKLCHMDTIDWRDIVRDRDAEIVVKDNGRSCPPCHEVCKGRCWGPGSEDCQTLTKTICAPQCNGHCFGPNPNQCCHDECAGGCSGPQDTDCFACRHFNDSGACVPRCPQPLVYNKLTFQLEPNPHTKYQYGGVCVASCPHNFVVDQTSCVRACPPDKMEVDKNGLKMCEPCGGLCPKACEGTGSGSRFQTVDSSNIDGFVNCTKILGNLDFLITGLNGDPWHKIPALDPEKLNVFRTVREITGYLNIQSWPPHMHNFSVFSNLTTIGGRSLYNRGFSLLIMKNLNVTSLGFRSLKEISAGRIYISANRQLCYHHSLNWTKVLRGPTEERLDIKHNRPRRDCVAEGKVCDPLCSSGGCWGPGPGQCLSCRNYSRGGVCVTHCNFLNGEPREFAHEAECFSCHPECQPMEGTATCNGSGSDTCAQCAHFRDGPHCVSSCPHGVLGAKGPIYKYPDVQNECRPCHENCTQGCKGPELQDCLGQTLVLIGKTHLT

Substitutions are numbered along the chain they refer to.

For test [1], the target named is T1, extracellular domain of HER3 (Sino Biological Inc., cat. no. 10201-H08H) (UniProt P21860 20-643, biotinylated (biotin carboxylic acid, succinimidyl ester)).
T1 construct: extracellular domain; also called HER3-ECD
Description: flow cytometry, on-cell affinity ranking of S. carnosus-displayed clones with 0.5 or 2 nM biotinylated HER3-ECD.

Test [2] concerns the target T2, recombinant human HER3/Fc chimera (R&D Systems, cat. no. 348-RB-050) (human, UniProt P21860 20-643).
T2 construct: extracellular domain; Bought reagent; Fc part of the bought chimera not given
Description: SPR off-rate ranking, 25 nM Z variant over immobilized human HER3-Fc; against the previously reported koff of Z05417.

B1: SEQ ID NO 71 (designed binder)
chain: AEAKYAKEKYNAYYEIWQLPNLTKYQKAAFIGKLQDDPSQSSELLSEAKKLNDSQAPK
Turning to B1, in test [1], the binding result is “binds”.

B2: SEQ ID NO 91 (designed binder)
chain: B1 chain with N11A, G32S
On to B2, for which the binding result in test [1] is “binds”.

B3: SEQ ID NO 97 (designed binder)
chain: B1 chain with N11S, Y25F
Take B3: the binding result in test [1] was “binds”.

B4: SEQ ID NO 105 (designed binder)
chain: B1 chain with K24V, Y25R
For B4, in test [1], the binding result is reported as “binds”.

B5: SEQ ID NO 77 (designed binder)
chain: B1 chain with N11S
As for B5, the binding result in test [1] is reported as “binds”.

B6: SEQ ID NO 89 (designed binder)
chain: B1 chain with Y14F, Y25W
In the case of B6, the binding result in test [1] is reported as “binds”.

B7: SEQ ID NO 79 (designed binder)
chain: B1 chain with N11E, Y25M
As to B7, the binding result in test [1] is given as “binds”.

B8: SEQ ID NO 90 (designed binder)
chain: B1 chain with N11E, Y14F
Take B8: in test [1], the binding result is on record as “binds”.

B9: SEQ ID NO 98 (designed binder)
chain: B1 chain with N11L, Y25M
For the molecule B9, in test [1], the binding result is “binds”.

B10: SEQ ID NO 74 (designed binder)
chain: B1 chain with N11T, Y14F
For B10, the binding result in test [1] is recorded as “binds”.

B11: SEQ ID NO 82 (designed binder)
chain: B1 chain with N11T, K24R, Y25M
For the molecule B11, the binding result in test [1] is given as “binds”.

B12: SEQ ID NO 87 (designed binder)
chain: B1 chain with N11S, Y14F, Y25R, Q35E
Take B12: in test [1], the binding result was “binds”.

B13: SEQ ID NO 75 (designed binder)
chain: B1 chain with N11S, Y14F
Regarding B13, in test [1], the binding result is reported as “binds”.

B14: SEQ ID NO 99 (designed binder)
chain: B1 chain with Y25M
Turning to B14, in test [1], the binding result is “binds”.

B15: SEQ ID NO 96 (designed binder)
chain: B1 chain with N11T, Y25F
In the case of B15, in test [1], the binding result is listed as “binds”.

B16: SEQ ID NO 80 (designed binder)
chain: B1 chain with N11S, K24R
Regarding B16, the binding result in test [1] is listed as “binds”.

B17: SEQ ID NO 104 (designed binder)
chain: B1 chain with N11E, K24V, Y25R
For the molecule B17, the binding result in test [1] is on record as “binds”.

B18: SEQ ID NO 100 (designed binder)
chain: B1 chain with Y25N
Consider B18, for which, in test [1], the binding result was “binds”.

B19: SEQ ID NO 81 (designed binder)
chain: B1 chain with K24R
For the molecule B19, in test [1], the binding result was “binds”.

B20: SEQ ID NO 95 (designed binder)
chain: B1 chain with K24N, Y25F
Take B20: the binding result in test [1] is “binds”.

B21: SEQ ID NO 85 (designed binder)
chain: B1 chain with N11A, Q18E, K24V, Y25R
As for B21, in test [1], the binding result was “binds”.

B22: SEQ ID NO 73 (designed binder)
chain: B1 chain with N11M, Y14F, Y25W
In the case of B22, in test [1], the binding result is on record as “binds”.

B23: SEQ ID NO 78 (designed binder)
chain: B1 chain with N11A, Y25M
Consider B23, for which the binding result in test [1] is recorded as “binds”.

B24: SEQ ID NO 94 (designed binder)
chain: B1 chain with N11A, Y25F
As for B24, the binding result in test [1] is listed as “binds”.

B25: SEQ ID NO 76 (designed binder)
chain: B1 chain with N11T
With B25, the binding result in test [1] was “binds”.

B26: SEQ ID NO 93 (designed binder)
chain: B1 chain with N11E, Y25F
For the molecule B26, the binding result in test [1] is “binds”.

B27: SEQ ID NO 101 (designed binder)
chain: B1 chain with N11S, Y25N
Consider B27, for which, in test [1], the binding result is reported as “binds”.

B28: SEQ ID NO 103 (designed binder)
chain: B1 chain with N11E, Y25T
Regarding B28, in test [1], the binding result was “binds”.

B29: SEQ ID NO 88 (designed binder)
chain: B1 chain with N11M, Y14F, Y25R
B29: in test [1], the binding result was “binds”.

B30: Z08700-His6 (designed binder)
chain: AEAKYAKEKYSAYYEIWQLPNLTKYQKAAFIGKLQDDPSQSSELLSEAKKLNDSQAPKLEHHHHHH
With B30, the “fold reduction of off-rate compared to Z05417” value (from here on “fold reduction of off-rate”) in test [2] is no less than 8 fold.

B31: Z08701-His6 (designed binder)
chain: B30 chain with S11A, Y25M
On to B31, for which, in test [2], the “fold reduction of off-rate” value was no less than 8 fold.

B32: Z08702-His6 (designed binder)
chain: B30 chain with S11E, Y25M
In the case of B32, the “fold reduction of off-rate” value in test [2] is no less than 8 fold.

B33: Z08696-His6 (designed binder)
chain: B30 chain with Y14F
In the case of B33, in test [2], the “fold reduction of off-rate” value was no less than 8 fold.
